From paper PMC10750078
For at least one entry, the source does not settle the construct or the ends of the probe. Weaker means in comparison with the reference protein, sequence or condition of that experiment. At least one verdict was read from the data and is not stated in words by the source. Where a protein sequence is shown, tags need not be part of it.

Biological target: T1, TBX5 T-box domain (UniProt Q99593)
T1 sequence (looked up): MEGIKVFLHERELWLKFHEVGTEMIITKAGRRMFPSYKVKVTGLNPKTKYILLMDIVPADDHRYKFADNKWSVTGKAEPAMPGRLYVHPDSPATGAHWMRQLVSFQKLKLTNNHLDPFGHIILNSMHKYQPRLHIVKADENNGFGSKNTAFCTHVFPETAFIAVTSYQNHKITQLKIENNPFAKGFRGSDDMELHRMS
Test: EMSA
Conditions: T-box or full-length not stated, 50 mM NaCl, 10 mM Tris-HCl pH 8.0, 10% glycerol, 5 nM dsDNA, protein 50-2000 nM, 30 min 30 C then 30 min room temperature, 6% PAGE 0.5x TBE at 4 C, recombinant protein, residues 51-248, protein details: 6xHis, label: IR-700 (5' of bottom strand, primer S20)

GCCGGCAGAGCTGACAGGCGTGCCAATGCCGCCGTAAG (double strand) [chr1:57623182-57623200]
binding result (middle SVM score): binds more weakly

AGGACTTCACAGACACTACTCGTGCCAATGCCGCCGTAAG (double strand) [rs7790964-ref]
binding result (ref allele): binds

TGGTGCTGACAGCTGGGACGTGCCAATGCCGCCGTAAG (double strand) [chr2:30359836-30359854]
binding result (highest SVM score): binds

TTAAGAGAGGGTCAATGATACGTGCCAATGCCGCCGTAAG (double strand) [rs7612445-ref]
binding result (ref allele, lower than alt): binds more weakly

AGGACTTCATAGACACTACTCGTGCCAATGCCGCCGTAAG (double strand) [rs7790964-alt]
binding result (alt allele, decreased vs ref): binds more weakly

TTAAGAGAGTGTCAATGATACGTGCCAATGCCGCCGTAAG (double strand) [rs7612445-alt]
binding result (alt allele, increased vs ref): binds
